From the supplement of paper PMC6078165

Tested on: HCC1143
Assay: relative JC-1 red fluorescence (viability) vs pre-drug, coculture with fibroblast (fraction); higher = more viable cancer cells
Experimental: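 JC-1 labelled TNBC cells cocultured 1:1 (1,500 cells each) with CellTrace Violet stained primary or stromal fibroblasts in 384-well plates in FluoroBrite medium, treated with one of 42 anticancer drugs at 0.1, 1, 10 or 100 uM. JC-1 red fluorescence (mitochondrial integrity in cancer cells only) was read by plate reader every 8 h for 72 h. Values are normalised to each well's pre-drug value. The stock of one drug was tenfold lower, so its dose labels may be too high.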

Cc1c2oc3c(C)ccc(C(=O)N[C@@H]4C(=O)N[C@H](C(C)C)C(=O)N5CCC[C@H]5C(=O)N(C)CC(=O)N(C)[C@@H](C(C)C)C(=O)O[C@@H]4C)c3nc-2c(C(=O)N[C@@H]2C(=O)N[C@H](C(C)C)C(=O)N3CCC[C@H]3C(=O)N(C)CC(=O)N(C)[C@@H](C(C)C)C(=O)O[C@@H]2C)c(N)c1=O [Dactinomycin] (I: T[dV]P[Sar][NMeV] / II: T[dV]P[Sar][NMeV]; ester I:1-I:C, II:1-II:C; linker I:N-II:N via Actinocin(9to1))
relative JC-1 red fluorescence
Conditions	8 h	16 h	24 h	32 h	40 h	48 h	56 h	64 h	72 h
0.1 µM, coculture fibroblast: C12385	0.84	0.808	0.781	0.746	0.683	0.686	0.685	0.674	0.683
0.1 µM, coculture fibroblast: H6013	0.763	0.7021	0.657	0.6299	0.581	0.581	0.563	0.555	0.49
0.1 µM, coculture fibroblast: H6019	0.815	0.724	0.681	0.646	0.615	0.608	0.578	0.569	0.558
0.1 µM, coculture fibroblast: H6076	0.81051	0.785	0.732	0.686	0.6334	0.63	0.618	0.598	0.622
0.1 µM, coculture fibroblast: H6231	0.809	0.871	0.776	0.627	0.672	0.623	0.567	0.518	0.486
0.1 µM, coculture fibroblast: HADF	0.773	0.743	0.721	0.708	0.62	0.615	0.596	0.594	0.534
0.1 µM, coculture fibroblast: HCFa	0.821	0.746	0.713	0.682	0.622	0.627	0.602	0.6031	0.529
0.1 µM, coculture fibroblast: HCPF	0.8135	0.85	0.797	0.692	0.717	0.696	0.673	0.648	0.65
0.1 µM, coculture fibroblast: HHSteC	0.847	0.794	0.746	0.695	0.635	0.627	0.596	0.581	0.502
0.1 µM, coculture fibroblast: HMF	0.78	0.804	0.705	0.629	0.61	0.56	0.51	0.483	0.468
0.1 µM, coculture fibroblast: HPFa	0.893	0.834	0.834	0.749	0.698	0.692	0.646	0.62	0.6
0.1 µM, coculture fibroblast: HUF	0.885	0.823	0.7193	0.636	0.577	0.564	0.536	0.522	0.513
0.1 µM, coculture fibroblast: Hs5	0.859	0.849	0.817	0.815	0.7394	0.721	0.703	0.687	0.703
0.1 µM, coculture fibroblast: Hs27A	0.741	0.697	0.665	0.673	0.59	0.62	0.594	0.598	0.533
0.1 µM, coculture fibroblast: Hs343T	0.825	0.85	0.792	0.703	0.6704	0.619	0.578	0.555	0.531
0.1 µM, coculture fibroblast: WS1	0.7932	0.7247	0.673	0.617	0.586	0.579	0.559	0.546	0.54
1 µM, coculture fibroblast: C12385	0.781	0.699	0.637	0.57	0.517	0.507	0.498	0.482	0.49
1 µM, coculture fibroblast: H6013	0.675	0.571	0.517	0.474	0.429	0.431	0.414	0.407	0.353
1 µM, coculture fibroblast: H6019	0.7586	0.654	0.5965	0.526	0.47	0.456	0.414	0.398	0.3889
1 µM, coculture fibroblast: H6076	0.794	0.731	0.709	0.714	0.647	0.647	0.627	0.61	0.632
1 µM, coculture fibroblast: H6231	0.774	0.735	0.654	0.633	0.562	0.543	0.512	0.498	0.5
1 µM, coculture fibroblast: HADF	0.737	0.675	0.622	0.604	0.519	0.501	0.47	0.454	0.402
1 µM, coculture fibroblast: HCFa	0.754	0.665	0.621	0.587	0.528	0.512	0.49	0.475	0.428
1 µM, coculture fibroblast: HCPF	0.7774	0.785	0.737	0.6656	0.658	0.625	0.583	0.5615	0.561
1 µM, coculture fibroblast: HHSteC	0.806	0.72	0.672	0.621	0.557	0.543	0.513	0.494	0.437
1 µM, coculture fibroblast: HMF	0.774	0.77061	0.712	0.6729	0.641	0.622	0.592	0.566	0.554
1 µM, coculture fibroblast: HPFa	0.835	0.711	0.659	0.579	0.535	0.538	0.511	0.51	0.501
1 µM, coculture fibroblast: HUF	0.814	0.743	0.684	0.618	0.567	0.554	0.516	0.507	0.497
1 µM, coculture fibroblast: Hs5	0.863	0.884	0.83	0.785	0.73	0.686	0.663	0.639	0.643
1 µM, coculture fibroblast: Hs27A	0.684	0.601	0.556	0.556	0.47	0.491	0.461	0.457	0.385
1 µM, coculture fibroblast: Hs343T	0.787	0.793	0.729	0.665	0.635	0.605	0.57	0.558	0.548
1 µM, coculture fibroblast: WS1	0.775	0.6645	0.589	0.518	0.461	0.436	0.402	0.387	0.372

Values are relative to the signal before dosing, not to a vehicle control; the signal also falls without drug.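 Fibroblast labels denote human fibroblasts, mainly primary ones from uterus (C12385, HUF), lung (H6013), bone (Hs27A), adrenal (HADF) and skin (WS1), plus mammary HMF and breast cancer-associated Hs343T. Cancer cells are basal-like or mesenchymal-like triple-negative breast cancer lines. A hit is a response shift exceeding 3x replicate standard deviation. The tissue of the other fibroblasts is not given here.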 Numbered stars: 1 amine (or outer) side, 2 acyl side, 3 side chain; on linkers, the order of the positions; unused ones are H or OH. Bridge positions count the residues as written; N and C are the ends. Square brackets hold non-standard residues; d marks the D form. Peptide text beside a SMILES is read from it. I, II: the chains in the order shown. Actinocin(9to1) = Cc1c2oc3c(C)ccc(C(=O)[*:1])c3nc-2c(C(=O)[*:2])c(N)c1=O; NMeV = CN[C@H](C(=O)O)C(C)C; Sar = CNCC(=O)O
